For one molecule, binding results are on record in paper doi:10.1101/2025.11.14.688441.

By UniProt entry, the sequences of proteins in these tests, tags left out.
UniProt Q8BX22: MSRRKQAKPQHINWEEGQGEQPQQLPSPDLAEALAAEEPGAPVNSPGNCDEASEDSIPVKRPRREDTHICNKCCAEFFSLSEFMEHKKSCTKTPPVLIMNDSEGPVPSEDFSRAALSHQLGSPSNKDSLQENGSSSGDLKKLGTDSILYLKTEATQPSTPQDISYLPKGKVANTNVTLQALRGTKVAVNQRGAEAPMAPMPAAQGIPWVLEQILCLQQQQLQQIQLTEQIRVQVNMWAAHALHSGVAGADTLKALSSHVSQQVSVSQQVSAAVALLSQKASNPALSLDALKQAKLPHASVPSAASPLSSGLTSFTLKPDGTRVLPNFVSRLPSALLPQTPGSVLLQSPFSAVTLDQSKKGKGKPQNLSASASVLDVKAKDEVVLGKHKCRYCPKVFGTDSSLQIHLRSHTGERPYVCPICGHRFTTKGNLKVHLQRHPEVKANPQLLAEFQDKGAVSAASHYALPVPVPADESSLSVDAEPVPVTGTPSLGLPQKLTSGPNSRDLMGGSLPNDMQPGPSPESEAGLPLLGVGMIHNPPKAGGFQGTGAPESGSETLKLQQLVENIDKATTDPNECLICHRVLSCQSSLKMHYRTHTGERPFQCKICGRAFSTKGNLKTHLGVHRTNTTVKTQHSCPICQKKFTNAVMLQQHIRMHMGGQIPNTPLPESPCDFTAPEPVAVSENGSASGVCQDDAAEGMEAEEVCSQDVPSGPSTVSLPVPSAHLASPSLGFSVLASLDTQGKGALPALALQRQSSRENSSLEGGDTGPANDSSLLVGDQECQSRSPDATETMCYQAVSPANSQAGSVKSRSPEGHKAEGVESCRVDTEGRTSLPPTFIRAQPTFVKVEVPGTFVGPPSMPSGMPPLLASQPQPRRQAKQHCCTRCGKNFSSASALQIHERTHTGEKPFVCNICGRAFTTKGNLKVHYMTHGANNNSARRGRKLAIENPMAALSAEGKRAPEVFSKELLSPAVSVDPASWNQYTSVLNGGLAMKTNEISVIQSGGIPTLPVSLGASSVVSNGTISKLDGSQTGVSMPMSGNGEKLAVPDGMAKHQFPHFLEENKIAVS

These are yes or no findings as the source states them, for the method shown. In cells and extracts the contact can be indirect. Some binding calls cover weakened binding; strength is not graded here.

For this assay, the target named is SALL4 (wild-type, endogenous in mouse embryonic stem cells) (mouse (endogenous in E14Ju09 ESCs)) (UniProt Q8BX22). Put plainly: co-IP.

B1: SALL1 (protein, UniProt Q9ER74 1-1322)
chain: MSRRKQAKPQHFQSDPEVASLPRRDGDTEKGQPSRPTKSKDAHVCGRCCAEFFELSDLLLHKKSCTKNQLVLIVNESPASPAKTFPPGPSLNDPDDQMKDAANKADQEDCSDLSEPKGLDREESMEVEVPVATTTTTTTGGSGGSGGSTLSGVTNITTPSCHSGCSSGTSAITTSLPQLGDLTTLGNFSVINSNVIIENLQSTKVAVAQFSQEARCGGASGGKLLISTLMEQLLALQQQQIHQLQLIEQIRHQILLLASQSADLPAAPSIPSQGTLRTSANPLTTLSSHLSQQLAVAAGLAQSLASQSANISGVKQLPHVQLPQSSSGTSIVPPSGGTSPNMSIVTAAVPTPSSEKVASNAGASHVSSPAVSASSSPAFAISSLLSPESNPLLPQPTPANAVFPTPLPNIATTAEDLNSLSALAQQRKSKPPNVTAFEAKSTSDEAFFKHKCRFCAKVFGSDSALQIHLRSHTGERPFKCNICGNRFSTKGNLKVHFQRHKEKYPHIQMNPYPVPEHLDNVPTSTGIPYGMSIPSEKPVTSWLDTKPVLPTLTTSVGLPLPPTLPSLTPFIKTEEPAPIPISHSAASPQGSVKSDSGAPDLATRNPSGVPEEVEGSAVPPFGGKGEESNMASSAVPTAGNSTLNSPVADGGPGGTTFTNPLLPLMSEQFKAKFPFGGLLDSAQASETSKLQQLVENIDKKATDPNECIICHRVLSCQSALKMHYRTHTGERPFKCKICGRAFTTKGNLKTHYSVHRAMPPLRVQHSCPICQKKFTNAVVLQQHIRMHMGGQIPNTPVPDNYPESMESDTGSFDEKNFDDLDNFSDENMEECPEGSIPDTPKSADASQDSLSSSPLPLEMSSIAALENQMKMINAGLAEQLQASLKSVENGSMEGDVLTNDSSSVGGDMESQSAGSPAISESTSSMQALSPSNSTQEFHKSPGMEEKPQRVGPGEFANGLSPTPVNGGALDLTSSHAEKIIKEDSLGILFPFRDRGKFKNTACDICGKTFACQSALDIHYRSHTKERPFICTVCNRGFSTKGNLKQHMLTHQMRDLPSQLFEPSSNLGPNQNSAVIPANSLSSLIKTEVNGFVHVSPQDSKDAPTSHVPQGPLSSSATSPVLLPALPRRTPKQHYCNTCGKTFSSSSALQIHERTHTGEKPFACTICGRAFTTKGNLKVHMGTHMWNSTPARRGRRLSVDGPMTFLGGNPVKFPEMFQKDLAARSGSGDPSSFWNQYTAALSNGLAMKANEISVIQNGGIPPIPGSLGSGSSPISGLTGNVEKLGNSEPSAPLAGLEKMASSENGTNFRFTRFVEDSKEIVTS
Turning to B1, the binding entry is listed as “binds”.
